The numbers were not newly measured in publication PMC7686577, “Discovery of Novel IDH1 Inhibitor Through Comparative Structure-Based Virtual Screening” (Frontiers in Pharmacology, 2020), which cites them from elsewhere.

The series deals with IDH1^R132H mutant. To be noted: ref Zheng et al., 2017; cited from earlier work.

Consider `CCN(CC)CCOc1ccc(C(=C(Cl)c2ccccc2)c2ccccc2)cc1` [clomifene], for which the Kd is 18.4 µM.
